Measured values: the supplement of paper PMC11438910
The other results are listed elsewhere or left out. The signal is at background level for most entries.

Legend:
Assay in all cases: fluorescence intensity of antibody binding to polysaccharide-coupled beads; higher = stronger binding
[1] = target: pneumococcal polysaccharide C-Poly-1
[2] = target: pneumococcal polysaccharide C-Poly-2
[3] = target: pneumococcal polysaccharide Pn1
[4] = target: pneumococcal polysaccharide Pn10A
[5] = target: pneumococcal polysaccharide Pn10B
[6] = target: pneumococcal polysaccharide Pn10C
[7] = target: pneumococcal polysaccharide Pn10F
[8] = target: pneumococcal polysaccharide Pn11A
[9] = target: pneumococcal polysaccharide Pn6A
[10] = target: pneumococcal polysaccharide Pn6B
[11] = target: pneumococcal polysaccharide Pn6C
[12] = target: pneumococcal polysaccharide Pn6D
[13] = target: pneumococcal polysaccharide Pn7A
[14] = target: pneumococcal polysaccharide Pn7B
[15] = target: pneumococcal polysaccharide Pn7C
[16] = target: pneumococcal polysaccharide Pn7F
[17] = target: pneumococcal polysaccharide Pn8
[18] = target: pneumococcal polysaccharide Pn9A
[19] = target: pneumococcal polysaccharide Pn9L
[20] = target: pneumococcal polysaccharide Pn9N
[21] = target: pneumococcal polysaccharide Pn9V
[22] = antibody concentration 0.1 ng/mL
[23] = antibody concentration 0.534724 ng/mL
[24] = antibody concentration 2.8593 ng/mL
[25] = antibody concentration 15.2894 ng/mL
[26] = antibody concentration 81.7561 ng/mL
[27] = antibody concentration 437.17 ng/mL
[28] = antibody concentration 2337.65 ng/mL
[29] = antibody concentration 12500 ng/mL

B1: 4-173.2 (protein)
chain 1: QLQLQESGPGLVKPSETLSLTCAVSGGSINSNYWSWIRQPPGKGLDWIGRISGSGGSTDYNPSLKSRVTISTDTSKTQFSLKLRSVTAADTAVYYCGRGSYQIDYWGQGILVTVSS
chain 2: QAALTQPPSMSGSPGQSVTISCTGTSSDIGGYNRVSWYQQYPGKAPKLMIYEVSKRPSGVSDRFSGSKSGNTASLTISGLQAADEADYYCSSYAGSKALFGGGTRLTVL
[1]; [22]
  fluorescence intensity: 26 MFI
[1]; [23]
  fluorescence intensity: 25.5 MFI
[1]; [24]
  fluorescence intensity: 25 MFI
[1]; [25]
  fluorescence intensity: 26 MFI
[1]; [26]
  fluorescence intensity: 27.2 MFI
[1]; [27]
  fluorescence intensity: 30.5 MFI
[1]; [28]
  fluorescence intensity: 57.8 MFI
[1]; [29]
  fluorescence intensity: 386 MFI
[2]; [22]
  fluorescence intensity: 21.5 MFI
[2]; [23]
  fluorescence intensity: 22 MFI
[2]; [24]
  fluorescence intensity: 21.5 MFI
[2]; [25]
  fluorescence intensity: 22 MFI
[2]; [26]
  fluorescence intensity: 22 MFI
[2]; [27]
  fluorescence intensity: 27 MFI
[2]; [28]
  fluorescence intensity: 47 MFI
[2]; [29]
  fluorescence intensity: 286 MFI
[3]; [22]
  fluorescence intensity: 13 MFI
[3]; [23]
  fluorescence intensity: 13 MFI
[3]; [24]
  fluorescence intensity: 15 MFI
[3]; [25]
  fluorescence intensity: 13.8 MFI
[3]; [26]
  fluorescence intensity: 14.5 MFI
[3]; [27]
  fluorescence intensity: 15 MFI
[3]; [28]
  fluorescence intensity: 19.5 MFI
[3]; [29]
  fluorescence intensity: 53.2 MFI
[4]; [22]
  fluorescence intensity: 26 MFI
[4]; [23]
  fluorescence intensity: 27.8 MFI
[4]; [24]
  fluorescence intensity: 25.8 MFI
[4]; [25]
  fluorescence intensity: 27.8 MFI
[4]; [26]
  fluorescence intensity: 25.5 MFI
[4]; [27]
  fluorescence intensity: 26.5 MFI
[4]; [28]
  fluorescence intensity: 30 MFI
[4]; [29]
  fluorescence intensity: 45.5 MFI
[5]; [22]
  fluorescence intensity: 23 MFI
[5]; [23]
  fluorescence intensity: 23.2 MFI
[5]; [24]
  fluorescence intensity: 24 MFI
[5]; [25]
  fluorescence intensity: 21.5 MFI
[5]; [26]
  fluorescence intensity: 23.5 MFI
[5]; [27]
  fluorescence intensity: 23.5 MFI
[5]; [28]
  fluorescence intensity: 27 MFI
[5]; [29]
  fluorescence intensity: 41.5 MFI
[6]; [22]
  fluorescence intensity: 17 MFI
[6]; [23]
  fluorescence intensity: 17 MFI
[6]; [24]
  fluorescence intensity: 17 MFI
[6]; [25]
  fluorescence intensity: 17.5 MFI
[6]; [26]
  fluorescence intensity: 15.2 MFI
[6]; [27]
  fluorescence intensity: 17 MFI
[6]; [28]
  fluorescence intensity: 18.8 MFI
[6]; [29]
  fluorescence intensity: 30.5 MFI
[7]; [22]
  fluorescence intensity: 20 MFI
[7]; [23]
  fluorescence intensity: 19.5 MFI
[7]; [24]
  fluorescence intensity: 19.5 MFI
[7]; [25]
  fluorescence intensity: 18.2 MFI
[7]; [26]
  fluorescence intensity: 20 MFI
[7]; [27]
  fluorescence intensity: 19.5 MFI
[7]; [28]
  fluorescence intensity: 22 MFI
[7]; [29]
  fluorescence intensity: 28 MFI
[8]; [22]
  fluorescence intensity: 28 MFI
[8]; [23]
  fluorescence intensity: 30.5 MFI
[8]; [24]
  fluorescence intensity: 30 MFI
[8]; [25]
  fluorescence intensity: 31.2 MFI

B2: 4-173.5 (protein)
chain 1: QLQLQESGPGLVKPSETLSLTCAVSGDSISSNYWSWIRQPPGKGLEWIGRISDGGGSTDYNPSLKSRVTISTDTSKNQFSLKLNSVTAADTAVYFCARGSYRVDYWGQGVLVTVSS
chain 2: QAALTQPPSMSGSPGQSVTISCTGASSDIGGYNRVSWYQQHPANAPKLMIYDVSKRPSGVSDRFSGSKSGNTASLTISGLQADDEADYYCSSYAHINTALFGGGTRLTVL
[9]; [26]
  fluorescence intensity: 224 MFI
[9]; [27]
  fluorescence intensity: 965 MFI
[9]; [28]
  fluorescence intensity: 2660 MFI
[9]; [29]
  fluorescence intensity: 4170 MFI
[10]; [22]
  fluorescence intensity: 19.2 MFI
[10]; [23]
  fluorescence intensity: 20.2 MFI
[10]; [24]
  fluorescence intensity: 21 MFI
[10]; [25]
  fluorescence intensity: 36.8 MFI
[10]; [26]
  fluorescence intensity: 141 MFI
[10]; [27]
  fluorescence intensity: 609 MFI
[10]; [28]
  fluorescence intensity: 1610 MFI
[10]; [29]
  fluorescence intensity: 2710 MFI
[11]; [22]
  fluorescence intensity: 17.2 MFI
[11]; [23]
  fluorescence intensity: 16.2 MFI
[11]; [24]
  fluorescence intensity: 16.8 MFI
[11]; [25]
  fluorescence intensity: 21.2 MFI
[11]; [26]
  fluorescence intensity: 85.8 MFI
[11]; [27]
  fluorescence intensity: 472 MFI
[11]; [28]
  fluorescence intensity: 1880 MFI
[11]; [29]
  fluorescence intensity: 4170 MFI
[12]; [22]
  fluorescence intensity: 18.8 MFI
[12]; [23]
  fluorescence intensity: 17.5 MFI
[12]; [24]
  fluorescence intensity: 19.8 MFI
[12]; [25]
  fluorescence intensity: 31 MFI
[12]; [26]
  fluorescence intensity: 122 MFI
[12]; [27]
  fluorescence intensity: 623 MFI
[12]; [28]
  fluorescence intensity: 2070 MFI
[12]; [29]
  fluorescence intensity: 3600 MFI
[13]; [22]
  fluorescence intensity: 19.5 MFI
[13]; [23]
  fluorescence intensity: 18.5 MFI
[13]; [24]
  fluorescence intensity: 20 MFI
[13]; [25]
  fluorescence intensity: 21 MFI
[13]; [26]
  fluorescence intensity: 21.5 MFI
[13]; [27]
  fluorescence intensity: 36.2 MFI
[13]; [28]
  fluorescence intensity: 105 MFI
[13]; [29]
  fluorescence intensity: 454 MFI
[14]; [22]
  fluorescence intensity: 16 MFI
[14]; [23]
  fluorescence intensity: 16.5 MFI
[14]; [24]
  fluorescence intensity: 18.2 MFI
[14]; [25]
  fluorescence intensity: 26 MFI
[14]; [26]
  fluorescence intensity: 100 MFI
[14]; [27]
  fluorescence intensity: 586 MFI
[14]; [28]
  fluorescence intensity: 2710 MFI
[14]; [29]
  fluorescence intensity: 4980 MFI
[15]; [22]
  fluorescence intensity: 14.5 MFI
[15]; [23]
  fluorescence intensity: 16 MFI
[15]; [24]
  fluorescence intensity: 15.5 MFI
[15]; [25]
  fluorescence intensity: 23 MFI
[15]; [26]
  fluorescence intensity: 61.8 MFI
[15]; [27]
  fluorescence intensity: 410 MFI
[15]; [28]
  fluorescence intensity: 2140 MFI
[15]; [29]
  fluorescence intensity: 3960 MFI
[16]; [22]
  fluorescence intensity: 14.5 MFI
[16]; [23]
  fluorescence intensity: 15.8 MFI
[16]; [24]
  fluorescence intensity: 17.5 MFI
[16]; [25]
  fluorescence intensity: 27.8 MFI
[16]; [26]
  fluorescence intensity: 83 MFI
[16]; [27]
  fluorescence intensity: 312 MFI
[16]; [28]
  fluorescence intensity: 954 MFI
[16]; [29]
  fluorescence intensity: 1870 MFI
[17]; [22]
  fluorescence intensity: 22.5 MFI
[17]; [23]
  fluorescence intensity: 22 MFI
[17]; [24]
  fluorescence intensity: 23 MFI
[17]; [25]
  fluorescence intensity: 27.5 MFI
[17]; [26]
  fluorescence intensity: 42 MFI
[17]; [27]
  fluorescence intensity: 136 MFI
[17]; [28]
  fluorescence intensity: 429 MFI
[17]; [29]
  fluorescence intensity: 872 MFI
[18]; [22]
  fluorescence intensity: 21 MFI
[18]; [23]
  fluorescence intensity: 20.5 MFI
[18]; [24]
  fluorescence intensity: 22.2 MFI
[18]; [25]
  fluorescence intensity: 49.5 MFI
[18]; [26]
  fluorescence intensity: 264 MFI
[18]; [27]
  fluorescence intensity: 1330 MFI
[18]; [28]
  fluorescence intensity: 4250 MFI
[18]; [29]
  fluorescence intensity: 6900 MFI
[19]; [22]
  fluorescence intensity: 15.5 MFI
[19]; [23]
  fluorescence intensity: 18 MFI
[19]; [24]
  fluorescence intensity: 18 MFI
[19]; [25]
  fluorescence intensity: 21.5 MFI
[19]; [26]
  fluorescence intensity: 43.2 MFI
[19]; [27]
  fluorescence intensity: 252 MFI
[19]; [28]
  fluorescence intensity: 1370 MFI
[19]; [29]
  fluorescence intensity: 2880 MFI
[20]; [22]
  fluorescence intensity: 17 MFI
[20]; [23]
  fluorescence intensity: 17.2 MFI
[20]; [24]
  fluorescence intensity: 17.5 MFI
[20]; [25]
  fluorescence intensity: 34.2 MFI
[20]; [26]
  fluorescence intensity: 166 MFI
[20]; [27]
  fluorescence intensity: 988 MFI
[20]; [28]
  fluorescence intensity: 3400 MFI
[20]; [29]
  fluorescence intensity: 5110 MFI
[21]; [22]
  fluorescence intensity: 16.2 MFI
[21]; [23]
  fluorescence intensity: 16 MFI
[21]; [24]
  fluorescence intensity: 23.5 MFI
[21]; [25]
  fluorescence intensity: 74.2 MFI
[21]; [26]
  fluorescence intensity: 317 MFI
[21]; [27]
  fluorescence intensity: 1450 MFI
[21]; [28]
  fluorescence intensity: 3340 MFI
[21]; [29]
  fluorescence intensity: 4650 MFI
